Measured data: PubChem BioAssay AID1671195 (Yale University, 2021)
Shown is an unselected part of about 22,000 reagents tested. About 1,510 of them (6.9%) count as active. 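Active includes knockdowns raising or lowering LDL uptake; positive z-scores mean more uptake, negative mean less.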 Reagents against one gene are numbered here.

- Test: 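Genes whose knockdown alters LDL uptake in liver cancer cells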 (primary screen)
- Cell system: human Huh7 hepatoma cells
- Knock-down reagent: siRNA pool against human genes, 18 nM
- Timing: about 2 to 2.5 days of knockdown, then 8 h LDL uptake
- Treatment: DiI-labelled LDL at 30 µg/ml for 8 h, in lipoprotein-deficient serum medium
- Detection: 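Fluorescent LDL signal imaged in cells, scaled to the plate median, robust z-score for each replicate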
- Direction: robust z-score: higher = more LDL uptake after knockdown
- Hit rule: 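a gene counts as active if at least two replicate z-scores exceed ±2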

no.	gene	pool no.	robust z-score, replicate 1	robust z-score, replicate 2	robust z-score, replicate 3	Outcome
1	LOC389904 (retired record)	1	0.297	0.828	0.97	inactive
2	ZNF385C (zinc finger protein 385C)	1	-0.497	-0.441	0.785	inactive
3	CECR7 (cat eye syndrome chromosome region, candidate 7)	1	0.987	-0.954	0.386	inactive
4	SYTL2 (synaptotagmin like 2)	1	1.76	0.562	0.903	inactive
5	TLR9 (toll like receptor 9)	1	-0.581	-1.23	-0.901	inactive
6	POP5 (POP5 ribonuclease P/MRP subunit)	1	-0.615	-0.369	-0.671	inactive
7	SNX19 (sorting nexin 19)	1	-0.593	-1.05	-0.742	inactive
8	SEL1L3 (SEL1L family member 3)	1	0.172	-1.15	-0.756	inactive
9	LARP4 (La ribonucleoprotein 4)	1	0.471	0.461	0.276	inactive
10	PLPPR1 (phospholipid phosphatase related 1)	1	0.557	-0.208	1.04	inactive
11	ZNF770 (zinc finger protein 770)	1	-0.22	-0.192	-1.45	inactive
12	TAF3 (TATA-box binding protein associated factor 3)	1	1.22	0.598	1.25	inactive
13	ARID3A (AT-rich interaction domain 3A)	1	-1.53	0.0454	0.233	inactive
14	MON2 (MON2 regulator of endosome-to-Golgi trafficking)	1	-0.112	2.04	-0.395	inactive
15	ABLIM2 (actin binding LIM protein family member 2)	1	1.02	1.78	1.34	inactive
16	ARPP21 (cAMP regulated phosphoprotein 21)	1	0.12	0.249	0.0438	inactive
17	ARPP21 (cAMP regulated phosphoprotein 21)	2	0.246	-0.126	-0.827	inactive
18	DLX1 (distal-less homeobox 1)	1	0.274	1.38	1.64	inactive
19	PDC (phosducin)	1	-0.204	-0.0488	-1.07	inactive
20	RNF207 (ring finger protein 207)	1	0.442	0.147	0.237	inactive
21	RNF207 (ring finger protein 207)	2	-0.846	0.01	-1.21	inactive
22	NEK10 (NIMA related kinase 10)	1	0.638	1.2	0.133	inactive
23	NEK10 (NIMA related kinase 10)	2	-1.13	-1.29	-1.4	inactive
24	RSPH14 (radial spoke head 14 homolog)	1	-0.603	0.664	-0.209	inactive
25	CYRIA (CYFIP related Rac1 interactor A)	1	-0.916	-0.65	-0.65	inactive
26	SLC25A38P1 (SLC25A38 pseudogene 1)	1	0.324	0.0435	0.227	inactive
27	GFOD3P	1	-0.421	-0.163	-0.317	inactive
28	CCR10 (C-C motif chemokine receptor 10)	1	-0.562	-0.854	-0.689	inactive

3 entries from above, set out differently:
gene	pool no.	robust z-score, replicate 1	robust z-score, replicate 2	robust z-score, replicate 3	Outcome
CECR7 (cat eye syndrome chromosome region, candidate 7)	1	0.987	-0.954	0.386	inactive
SYTL2 (synaptotagmin like 2)	1	1.76	0.562	0.903	inactive
TLR9 (toll like receptor 9)	1	-0.581	-1.23	-0.901	inactive
